In patent US20090186810A1, “POTASSIUM CHANNEL MODULATORS AND PLATELET PROCOAGULANT ACTIVITY” (priority 2006, published 2009):

Tested on: collagen and thrombin activated platelets
Experiment: cells
Type: cell-based
Conditions: Homo sapiens, Platelet, read-out: estimated IC50 on the platelet procoagulant response
Procedure: Platelet isolation was performed as described.^10 Briefly, 10 milliliters (mL) blood was collected in 2 mL anticoagulant ACD (80 mmol/L trisodium citrate, 52 mmol/L citric acid and 180 mmol/L glucose). Platelet rich plasma was obtained by centrifuging whole blood for 15 minutes at 200 g. Platelets were spun down at 11,500× gravity for 2 minutes using a microfuge. The platelet pellet was resuspended and washed twice with 10 mmol/L HEPES, 137 mmol/L NaCl, 2.7 mmol/L KCl, 2 mmol/L MgCl2, 5 mmol/L glucose and 0.5 mg/mL BSA, adjusted at pH 6.6); before each centrifugation step, 100 μL ACD was added to each mL resuspended platelets. Finally, platelets were resuspended in HEPES buffer at pH 7.4. Platelet count was adjusted at 2×10^8 platelets/mL. For measurement of the intracellular Ca^2+ concentration ([Ca^2+]i), platelets were loaded with Fura-2 (3 μmol/L) during 45 minutes at 37° C., prior to isolation. […]
Platelet procoagulant activity was assayed as described in more detail elsewhere.^9 Briefly, after activation of 10^7 platelets/mL with collagen (10 μg/mL) and thrombin (4 nmol/L) for 10 minutes, samples were taken and diluted to 10^6 platelets/mL in HEPES buffer containing 3 mmol/L CaCl2 and 0.5 mg/mL BSA. […] Thrombin was measured using the chromogenic substrate S2238. […]

Clc1ccccc1C(c1ccccc1)(c1ccccc1)n1ccnc1 [clotrimazol, 1-[(2-chlorophenyl)diphenylmethyl]-1H-imidazole]
IC50: 100 nM
